# Laboratory results from the supplement of paper PMC12819154, “High-throughput peptide-centric local stability assay extends protein–ligand identification to membrane proteins, tissues and bacteria” (Nature Structural & Molecular Biology, 2025).
# Chains of the proteins cited; added tags and fusions are not shown. Lines headed by an entry give the natural chain unless they say otherwise; changes in a name come on top.
# UniProt Q9D8T2: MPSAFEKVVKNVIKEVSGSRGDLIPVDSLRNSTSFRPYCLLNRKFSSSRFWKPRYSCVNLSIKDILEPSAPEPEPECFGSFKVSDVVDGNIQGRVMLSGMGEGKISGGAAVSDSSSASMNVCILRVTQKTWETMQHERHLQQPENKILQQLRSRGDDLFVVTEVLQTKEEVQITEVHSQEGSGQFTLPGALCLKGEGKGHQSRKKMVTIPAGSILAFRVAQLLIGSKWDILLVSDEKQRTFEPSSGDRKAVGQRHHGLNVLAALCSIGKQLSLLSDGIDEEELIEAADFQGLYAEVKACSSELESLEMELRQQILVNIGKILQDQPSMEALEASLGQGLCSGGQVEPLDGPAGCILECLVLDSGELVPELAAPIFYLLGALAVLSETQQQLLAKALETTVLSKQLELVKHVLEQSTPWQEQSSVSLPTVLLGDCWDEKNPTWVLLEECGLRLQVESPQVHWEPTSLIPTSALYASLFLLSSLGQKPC
# UniProt Q9D1H6: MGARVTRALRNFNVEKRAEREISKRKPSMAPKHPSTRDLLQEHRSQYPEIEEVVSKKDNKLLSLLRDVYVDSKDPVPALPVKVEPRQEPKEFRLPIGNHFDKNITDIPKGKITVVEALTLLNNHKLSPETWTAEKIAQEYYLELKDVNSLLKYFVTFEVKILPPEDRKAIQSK
# UniProt Q9D8U2: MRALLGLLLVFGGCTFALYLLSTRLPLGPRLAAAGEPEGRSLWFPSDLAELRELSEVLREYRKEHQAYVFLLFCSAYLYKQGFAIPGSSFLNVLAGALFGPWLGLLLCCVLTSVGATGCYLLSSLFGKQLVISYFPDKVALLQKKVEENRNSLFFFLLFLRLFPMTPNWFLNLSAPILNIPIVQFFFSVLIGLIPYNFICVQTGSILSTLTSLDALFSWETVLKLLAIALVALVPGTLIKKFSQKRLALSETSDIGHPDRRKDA
# UniProt Q9D5V6: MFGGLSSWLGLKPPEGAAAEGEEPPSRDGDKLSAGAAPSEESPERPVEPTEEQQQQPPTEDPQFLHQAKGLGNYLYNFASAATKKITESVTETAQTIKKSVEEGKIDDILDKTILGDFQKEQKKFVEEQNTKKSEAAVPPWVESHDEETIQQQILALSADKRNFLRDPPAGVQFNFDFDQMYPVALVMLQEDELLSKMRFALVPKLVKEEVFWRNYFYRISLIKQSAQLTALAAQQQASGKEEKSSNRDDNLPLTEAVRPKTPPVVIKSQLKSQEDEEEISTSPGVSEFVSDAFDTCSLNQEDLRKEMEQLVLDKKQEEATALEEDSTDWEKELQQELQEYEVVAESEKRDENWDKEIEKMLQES
# UniProt Q9D6K5: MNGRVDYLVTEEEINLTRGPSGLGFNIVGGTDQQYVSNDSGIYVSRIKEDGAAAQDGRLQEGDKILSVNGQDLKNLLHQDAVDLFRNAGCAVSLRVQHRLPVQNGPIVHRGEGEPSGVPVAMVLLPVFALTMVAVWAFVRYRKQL
# UniProt Q9D1Q4: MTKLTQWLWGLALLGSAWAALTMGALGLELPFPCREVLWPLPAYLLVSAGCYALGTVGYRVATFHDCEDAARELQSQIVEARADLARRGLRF
# UniProt Q9D1R2: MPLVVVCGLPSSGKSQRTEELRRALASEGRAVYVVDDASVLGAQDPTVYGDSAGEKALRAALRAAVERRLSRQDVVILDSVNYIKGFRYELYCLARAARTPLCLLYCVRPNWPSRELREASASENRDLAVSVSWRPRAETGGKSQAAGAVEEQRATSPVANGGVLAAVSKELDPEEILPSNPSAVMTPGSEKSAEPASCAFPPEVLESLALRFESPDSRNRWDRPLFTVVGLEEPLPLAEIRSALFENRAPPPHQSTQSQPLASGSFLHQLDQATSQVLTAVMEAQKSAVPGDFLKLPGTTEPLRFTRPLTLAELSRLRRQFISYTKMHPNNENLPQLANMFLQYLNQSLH
# UniProt Q9D964: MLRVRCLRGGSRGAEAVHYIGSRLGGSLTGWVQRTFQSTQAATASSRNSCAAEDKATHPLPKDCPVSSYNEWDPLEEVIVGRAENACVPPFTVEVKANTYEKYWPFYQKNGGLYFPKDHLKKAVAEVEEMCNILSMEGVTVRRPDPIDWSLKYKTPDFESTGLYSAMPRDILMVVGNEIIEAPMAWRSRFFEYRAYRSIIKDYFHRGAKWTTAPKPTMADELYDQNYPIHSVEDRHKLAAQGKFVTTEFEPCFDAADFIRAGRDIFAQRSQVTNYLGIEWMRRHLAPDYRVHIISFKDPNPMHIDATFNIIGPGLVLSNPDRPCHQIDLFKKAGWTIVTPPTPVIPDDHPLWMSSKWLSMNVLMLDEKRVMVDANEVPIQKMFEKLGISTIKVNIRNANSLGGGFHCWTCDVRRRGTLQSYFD
# UniProt Q9D938: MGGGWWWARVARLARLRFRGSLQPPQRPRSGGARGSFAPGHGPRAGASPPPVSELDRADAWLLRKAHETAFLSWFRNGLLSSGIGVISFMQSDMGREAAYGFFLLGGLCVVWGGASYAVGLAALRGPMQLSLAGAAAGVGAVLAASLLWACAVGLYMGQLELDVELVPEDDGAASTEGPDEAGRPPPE
# UniProt Q9D7K5: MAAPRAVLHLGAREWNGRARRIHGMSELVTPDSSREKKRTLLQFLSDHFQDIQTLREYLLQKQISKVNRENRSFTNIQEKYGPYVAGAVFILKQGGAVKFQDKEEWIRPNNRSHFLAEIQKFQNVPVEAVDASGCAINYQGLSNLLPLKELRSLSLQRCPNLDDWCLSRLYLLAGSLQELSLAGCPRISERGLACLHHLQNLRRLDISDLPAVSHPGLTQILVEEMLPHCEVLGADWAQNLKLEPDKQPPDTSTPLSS
# UniProt Q9DAA6, whole entry: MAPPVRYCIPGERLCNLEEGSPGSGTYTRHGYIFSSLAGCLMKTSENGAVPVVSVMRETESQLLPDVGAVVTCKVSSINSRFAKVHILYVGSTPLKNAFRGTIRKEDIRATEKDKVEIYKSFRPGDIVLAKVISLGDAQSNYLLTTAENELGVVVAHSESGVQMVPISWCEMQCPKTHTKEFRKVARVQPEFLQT
# UniProt Q9D906: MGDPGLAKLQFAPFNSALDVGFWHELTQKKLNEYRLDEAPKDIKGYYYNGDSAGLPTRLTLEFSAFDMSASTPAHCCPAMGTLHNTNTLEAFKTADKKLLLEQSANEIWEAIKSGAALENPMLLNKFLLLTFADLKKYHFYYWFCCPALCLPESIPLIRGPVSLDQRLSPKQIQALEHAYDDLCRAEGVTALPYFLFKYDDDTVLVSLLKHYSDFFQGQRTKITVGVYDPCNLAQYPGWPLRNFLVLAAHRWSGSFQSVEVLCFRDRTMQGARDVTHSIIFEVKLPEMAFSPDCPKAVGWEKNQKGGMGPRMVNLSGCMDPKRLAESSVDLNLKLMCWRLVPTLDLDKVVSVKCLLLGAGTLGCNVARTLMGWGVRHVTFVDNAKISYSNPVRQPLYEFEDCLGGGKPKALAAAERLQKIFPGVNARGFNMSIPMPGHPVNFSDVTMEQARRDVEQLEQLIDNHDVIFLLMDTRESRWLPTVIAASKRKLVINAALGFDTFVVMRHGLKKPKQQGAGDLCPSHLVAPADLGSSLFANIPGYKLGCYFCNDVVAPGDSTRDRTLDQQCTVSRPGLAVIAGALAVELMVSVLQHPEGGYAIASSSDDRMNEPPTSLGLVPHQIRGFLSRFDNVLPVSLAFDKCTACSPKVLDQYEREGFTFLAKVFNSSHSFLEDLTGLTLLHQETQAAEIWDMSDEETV
# UniProt Q9D752, whole entry: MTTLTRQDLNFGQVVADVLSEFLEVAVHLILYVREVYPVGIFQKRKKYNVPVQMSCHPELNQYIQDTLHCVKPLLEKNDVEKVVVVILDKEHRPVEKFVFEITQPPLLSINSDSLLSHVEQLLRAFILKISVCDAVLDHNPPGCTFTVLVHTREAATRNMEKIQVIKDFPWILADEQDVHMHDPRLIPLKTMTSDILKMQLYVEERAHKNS
# UniProt Q9D1M0: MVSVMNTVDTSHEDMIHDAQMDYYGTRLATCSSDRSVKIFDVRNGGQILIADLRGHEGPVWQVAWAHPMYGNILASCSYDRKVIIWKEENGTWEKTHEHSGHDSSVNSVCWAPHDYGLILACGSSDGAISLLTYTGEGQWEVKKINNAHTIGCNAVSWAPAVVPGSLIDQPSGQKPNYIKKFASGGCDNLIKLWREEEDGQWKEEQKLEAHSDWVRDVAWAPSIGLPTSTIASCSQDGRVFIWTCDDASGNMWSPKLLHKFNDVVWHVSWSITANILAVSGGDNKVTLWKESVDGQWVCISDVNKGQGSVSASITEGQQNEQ
# UniProt Q9D394: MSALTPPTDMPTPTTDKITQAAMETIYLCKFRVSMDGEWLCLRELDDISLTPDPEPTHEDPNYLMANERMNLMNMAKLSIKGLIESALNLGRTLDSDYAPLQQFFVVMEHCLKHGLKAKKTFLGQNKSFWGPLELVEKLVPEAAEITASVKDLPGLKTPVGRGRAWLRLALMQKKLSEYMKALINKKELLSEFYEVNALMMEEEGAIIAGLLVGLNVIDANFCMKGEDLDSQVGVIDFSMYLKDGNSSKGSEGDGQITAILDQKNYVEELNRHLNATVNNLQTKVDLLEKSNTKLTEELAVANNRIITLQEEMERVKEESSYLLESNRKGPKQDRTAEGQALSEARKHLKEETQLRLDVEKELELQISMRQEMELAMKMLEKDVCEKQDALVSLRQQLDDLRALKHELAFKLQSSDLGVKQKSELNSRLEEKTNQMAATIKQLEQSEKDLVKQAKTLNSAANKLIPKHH
# UniProt Q9D6W8: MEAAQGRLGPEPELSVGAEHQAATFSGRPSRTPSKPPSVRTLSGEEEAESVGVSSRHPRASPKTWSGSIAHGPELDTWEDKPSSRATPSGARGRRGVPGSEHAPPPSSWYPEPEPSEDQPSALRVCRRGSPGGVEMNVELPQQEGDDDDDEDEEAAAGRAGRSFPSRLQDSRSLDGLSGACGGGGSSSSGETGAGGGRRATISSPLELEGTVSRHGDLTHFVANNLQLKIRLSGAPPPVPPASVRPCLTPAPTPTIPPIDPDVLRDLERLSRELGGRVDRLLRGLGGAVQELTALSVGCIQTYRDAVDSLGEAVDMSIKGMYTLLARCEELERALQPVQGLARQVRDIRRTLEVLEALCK
# UniProt Q9D7H4: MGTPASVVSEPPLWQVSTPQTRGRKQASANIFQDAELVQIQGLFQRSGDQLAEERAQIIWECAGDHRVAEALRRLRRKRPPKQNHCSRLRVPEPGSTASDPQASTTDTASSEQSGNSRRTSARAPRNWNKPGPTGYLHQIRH
# UniProt Q9D7I5: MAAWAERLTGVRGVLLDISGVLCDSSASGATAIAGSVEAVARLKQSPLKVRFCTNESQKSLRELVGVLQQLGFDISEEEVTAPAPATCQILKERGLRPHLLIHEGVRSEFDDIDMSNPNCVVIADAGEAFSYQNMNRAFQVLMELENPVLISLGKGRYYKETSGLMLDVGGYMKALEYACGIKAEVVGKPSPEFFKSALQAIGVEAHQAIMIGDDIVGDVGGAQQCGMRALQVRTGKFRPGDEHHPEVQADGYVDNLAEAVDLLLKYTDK
# UniProt Q9D4J1, whole entry: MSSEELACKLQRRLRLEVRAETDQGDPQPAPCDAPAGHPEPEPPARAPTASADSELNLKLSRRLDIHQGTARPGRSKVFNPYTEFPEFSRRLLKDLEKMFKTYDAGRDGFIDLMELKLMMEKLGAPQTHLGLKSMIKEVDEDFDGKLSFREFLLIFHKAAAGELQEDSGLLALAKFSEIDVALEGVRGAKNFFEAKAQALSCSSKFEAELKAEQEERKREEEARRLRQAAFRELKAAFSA
# UniProt Q9D2I5: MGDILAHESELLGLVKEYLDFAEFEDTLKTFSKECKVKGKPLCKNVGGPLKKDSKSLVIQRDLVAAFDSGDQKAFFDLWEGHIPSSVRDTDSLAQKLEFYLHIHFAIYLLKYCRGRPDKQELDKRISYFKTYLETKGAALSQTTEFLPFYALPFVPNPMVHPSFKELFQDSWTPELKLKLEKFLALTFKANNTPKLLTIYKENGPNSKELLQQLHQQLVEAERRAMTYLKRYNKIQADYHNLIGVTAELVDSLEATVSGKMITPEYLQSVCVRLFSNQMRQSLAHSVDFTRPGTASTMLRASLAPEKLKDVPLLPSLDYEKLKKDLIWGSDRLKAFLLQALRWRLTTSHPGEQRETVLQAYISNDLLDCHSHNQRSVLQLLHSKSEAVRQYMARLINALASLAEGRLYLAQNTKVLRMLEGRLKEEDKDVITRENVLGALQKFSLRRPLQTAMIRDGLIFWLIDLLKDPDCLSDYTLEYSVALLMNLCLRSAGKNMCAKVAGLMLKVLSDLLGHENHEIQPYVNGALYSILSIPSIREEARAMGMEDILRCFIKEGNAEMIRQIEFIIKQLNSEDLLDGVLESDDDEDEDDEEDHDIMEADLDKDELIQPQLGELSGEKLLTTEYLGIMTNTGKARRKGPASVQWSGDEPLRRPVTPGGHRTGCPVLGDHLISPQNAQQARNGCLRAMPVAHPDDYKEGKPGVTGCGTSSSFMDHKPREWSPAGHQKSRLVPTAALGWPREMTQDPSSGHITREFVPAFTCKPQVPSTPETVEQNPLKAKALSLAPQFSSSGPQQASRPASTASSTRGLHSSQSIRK
# This is one part of the list. Most entries show no effect beyond the scatter of the controls.
# Compound: CN[C@@H]1C[C@H]2O[C@@](C)([C@@H]1OC)n1c3ccccc3c3c4c(c5c6ccccc6n2c5c31)C(=O)NC4 [staurosporine]
# Assay: log2 fold change of tryptic peptide abundance, ligand vs vehicle (limited proteolysis) (log2 ratio); higher = more trypsin-susceptible (destabilized)
# Conditions: ligand concentration: 20 uM; sample: mouse liver crude lysate; replicate design: treated separately
row,Target,log2 fold change
1,"UniProt Q9D8T2 (peptide sequence: QQILVNIGK, peptide start residue: 312)",-0.216
2,"UniProt Q9D711 (peptide sequence: IEPHHTAVLGEGDAVQLENKDPK, peptide start residue: 212)",-0.259
3,"UniProt Q9D6K8 (peptide sequence: SKAEEVVSFVKK, peptide start residue: 122)",-0.301
4,"UniProt Q9D1H6 (peptide sequence: SQYPEIEEVVSKK, peptide start residue: 45)",0.139
5,"UniProt Q9D920 (peptide sequence: VNEMSAILR, peptide start residue: 149)",-0.204
6,"UniProt Q9D665 (peptide sequence: FVCGDIR, peptide start residue: 53)",0.358
7,"UniProt Q9D8U2 (peptide sequence: LALSETSDIGHPDR, peptide start residue: 247)",0.0564
8,"UniProt Q9D5V6 (peptide sequence: KEMEQLVLDKK, peptide start residue: 306)",-0.176
9,"UniProt Q9D2H6 (peptide sequence: MACTCPNCKDGEKR, peptide start residue: 502)",-0.214
10,"UniProt Q9D6K5 (peptide sequence: VQHRLPVQNGPIVHR, peptide start residue: 96)",-0.912
11,"UniProt Q9D1Q4 (peptide sequence: VATFHDCEDAAR, peptide start residue: 61)",0.0939
12,"UniProt Q9D1J3 (peptide sequence: FNVPVSLESKK, peptide start residue: 110)",0.173
13,"UniProt Q9D3D9 (peptide sequence: IEANEALVKALE, peptide start residue: 157)",0.559
14,"UniProt Q9D1C9 (peptide sequence: ELLNFYAWQHR, peptide start residue: 237)",-0.269
15,"UniProt Q9D1R2 (peptide sequence: GFRYELYCLAR, peptide start residue: 86)",-0.204
16,"UniProt Q9D7S7 (peptide sequence: VVASDKETYELR, peptide start residue: 96)",-0.06
17,"UniProt Q9D142 (peptide sequence: IDGVAVGLCAHSPYLRPFTLHYR, peptide start residue: 4)",-0.561
18,"UniProt Q9D9H8 (peptide sequence: SNELLLLTSR, peptide start residue: 64)",-0.278

row,Target,log2 fold change
1,"UniProt Q9D964 (peptide sequence: NSCAAEDK, peptide start residue: 48)",-0.161
2,"UniProt Q9D938 (peptide sequence: GGGWWWAR, peptide start residue: 2)",0.137
3,"UniProt Q9D7K5 (peptide sequence: FQDKEEWIRPNNR, peptide start residue: 100)",0.23
4,"UniProt Q9DAA6 (peptide sequence: YCIPGER, peptide start residue: 7)",0.191
5,"UniProt Q9D906 (peptide sequence: WLPTVIAASKR, peptide start residue: 478)",0.278
6,"UniProt Q9D8Y1 (peptide sequence: MESHKPSTSKDDLILNIISR, peptide start residue: 1)",-0.341
7,"UniProt Q9D752 (peptide sequence: TMTSDILK, peptide start residue: 191)",0.0631
8,"UniProt Q9D3S3 (peptide sequence: EALVSQMR, peptide start residue: 620)",-0.181
9,"UniProt Q9D1M0 (peptide sequence: FASGGCDNLIK, peptide start residue: 182)",-0.477
10,"UniProt Q9D394 (peptide sequence: MNLMNMAK, peptide start residue: 70)",0.231
11,"UniProt Q9D6W8 (peptide sequence: TWSGSIAHGPELDTWEDKPSSR, peptide start residue: 64)",0.269
12,"UniProt Q9D7H4 (peptide sequence: SGDQLAEER, peptide start residue: 47)",0.0589
13,"UniProt Q9D1L9 (peptide sequence: HDGITVAVHK, peptide start residue: 79)",-0.298
14,"UniProt Q9D7I5 (peptide sequence: AEVVGKPSPEFFK, peptide start residue: 184)",-0.38
15,"UniProt Q9D666 (peptide sequence: LSNLEDVLR, peptide start residue: 570)",-0.42
16,"UniProt Q9D4J1 (peptide sequence: LGAPQTHLGLK, peptide start residue: 124)",0.01
17,"UniProt Q9D2I5 (peptide sequence: AFLLQALR, peptide start residue: 335)",-0.043

# Part of the list above, bar-delimited.
row | Target | log2 fold change
13 | UniProt Q9D1L9 (peptide sequence: HDGITVAVHK, peptide start residue: 79) | -0.298
15 | UniProt Q9D666 (peptide sequence: LSNLEDVLR, peptide start residue: 570) | -0.42
